Assay results taken from article PMC7225313.
No constants are given. Whether binding was seen depends on the method and setting. In cells and extracts the contact can be indirect. A yes stands for co-enrichment or nearness to the bait. Other partners may have been found. Sequences can lack the tags named with a protein.

Target: T1, Rv1768 (PE_PGRS31), full-length, 6xHis-tagged (M. tuberculosis H37Rv) (UniProt Q79FK9)
T1 sequence: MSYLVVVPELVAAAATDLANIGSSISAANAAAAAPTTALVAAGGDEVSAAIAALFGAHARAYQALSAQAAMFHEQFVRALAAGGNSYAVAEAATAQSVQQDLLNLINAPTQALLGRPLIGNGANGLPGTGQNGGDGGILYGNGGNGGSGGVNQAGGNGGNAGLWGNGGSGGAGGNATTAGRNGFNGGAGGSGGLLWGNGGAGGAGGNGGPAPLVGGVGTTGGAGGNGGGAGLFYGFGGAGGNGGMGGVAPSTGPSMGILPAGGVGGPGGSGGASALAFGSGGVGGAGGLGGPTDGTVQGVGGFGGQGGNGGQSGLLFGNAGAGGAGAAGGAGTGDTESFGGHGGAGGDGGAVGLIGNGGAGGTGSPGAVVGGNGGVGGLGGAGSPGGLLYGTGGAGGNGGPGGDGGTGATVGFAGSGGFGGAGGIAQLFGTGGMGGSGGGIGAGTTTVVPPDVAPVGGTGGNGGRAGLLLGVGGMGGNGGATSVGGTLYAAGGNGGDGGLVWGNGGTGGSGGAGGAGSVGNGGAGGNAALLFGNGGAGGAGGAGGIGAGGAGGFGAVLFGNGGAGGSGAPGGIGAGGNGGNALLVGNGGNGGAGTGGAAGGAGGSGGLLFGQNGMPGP
Experiment: affinity purification with mass spectrometry; only the target purified

B1: S100A9 (protein, UniProt P31725 1-113)
chain: MANKAPSQMERSITTIIDTFHQYSRKEGHPDTLSKKEFRQMVEAQLATFMKKEKRNEALINDIMEDLDTNQDNQLSFEECMMLMAKLIFACHEKLHENNPRGHGHSHGKGCGK
- binding: binds
